Percent effect of library compounds

Sequences of proteins named here, by UniProt entry; tags and fusion partners are left off. Residues count along the entry.
UniProt Q4DA54, 1-478: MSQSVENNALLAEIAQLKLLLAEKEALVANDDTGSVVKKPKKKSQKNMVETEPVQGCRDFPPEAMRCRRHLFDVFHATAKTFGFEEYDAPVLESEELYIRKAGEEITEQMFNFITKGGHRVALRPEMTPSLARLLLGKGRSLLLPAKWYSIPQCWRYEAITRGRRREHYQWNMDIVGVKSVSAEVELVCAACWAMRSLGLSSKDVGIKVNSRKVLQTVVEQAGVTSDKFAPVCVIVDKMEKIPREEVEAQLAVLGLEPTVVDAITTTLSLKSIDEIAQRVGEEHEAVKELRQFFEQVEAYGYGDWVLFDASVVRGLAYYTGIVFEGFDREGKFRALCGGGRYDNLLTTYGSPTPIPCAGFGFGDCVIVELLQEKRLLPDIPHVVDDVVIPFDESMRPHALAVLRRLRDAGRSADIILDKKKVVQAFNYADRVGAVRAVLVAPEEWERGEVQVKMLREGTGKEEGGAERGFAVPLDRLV
UniProt A4I591, 1-473: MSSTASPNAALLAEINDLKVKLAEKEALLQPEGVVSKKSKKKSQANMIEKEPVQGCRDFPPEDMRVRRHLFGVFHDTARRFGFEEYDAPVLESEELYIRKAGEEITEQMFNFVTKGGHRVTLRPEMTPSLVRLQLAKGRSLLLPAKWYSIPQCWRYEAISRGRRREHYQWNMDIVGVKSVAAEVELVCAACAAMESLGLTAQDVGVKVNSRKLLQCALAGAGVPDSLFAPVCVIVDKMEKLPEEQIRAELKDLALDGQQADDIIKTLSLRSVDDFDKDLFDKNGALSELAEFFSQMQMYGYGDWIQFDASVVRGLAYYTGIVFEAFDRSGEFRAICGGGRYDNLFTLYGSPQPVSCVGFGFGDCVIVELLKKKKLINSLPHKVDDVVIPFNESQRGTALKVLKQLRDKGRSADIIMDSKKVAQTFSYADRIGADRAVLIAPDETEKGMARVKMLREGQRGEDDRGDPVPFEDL

Toxoplasma: 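Assay of Toxoplasma gondii numbers, read through their beta-galactosidase reporter with a colour substrate. Concentration: 10 µM. Higher reads as fewer parasites (inferred from which compounds were picked for retests). Size under these conditions: about 67,000 compounds, about 260 of them at 50% or above in at least one test.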
TcHisRS: 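Enzyme assay of histidyl-tRNA synthetase; the read-out is not stated. Target: Histidine-tRNA ligase, Trypanosoma cruzi CL Brener (UniProt Q4DA54). Compounds at 30 µM. Direction is inferred from retests: higher values go with stronger inhibition. About 69,000 compounds were tested under these conditions; 0.045% (about 31) showed 50% or more at least once.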
LiHisRS: 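Enzyme assay of histidyl-tRNA synthetase; the read-out is not stated. Target: Histidine-tRNA ligase, Leishmania infantum (UniProt A4I591). Tested at 30 µM. Direction is inferred from retests: higher values go with stronger inhibition. The assay is labelled LdHisRS but filed under L. infantum. Of about 69,000 compounds tested this way, about 410 (0.6%) reached 50% or more in at least one test.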
T. brucei: 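Whole-parasite assay of Trypanosoma brucei over 72 hours; the read-out is not stated. Tested at 30 µM. The record gives no direction; compounds that gave an IC50 in retests scored well above the rest, so higher reads as stronger inhibition. Values scatter widely below zero; nearly all retest evidence comes from the higher of the two concentrations used. Of about 64,000 compounds tested this way, about 940 (1.5%) reached 50% or more in at least one test.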

Values are the deposited “Percent Effect”, in %. The record does not define 0% and 100%; most values in the screen are far below 50% and negative numbers occur (in some assays of this library far below -100). This is an unselected part of the compounds tested.

For NC(=O)[C@@H]1Cc2ccccc2N1C(=O)C1CC(c2ccccc2)=NO1 (some centres not stated) the result was Toxoplasma: 17.61%; TcHisRS: 2.679%; LiHisRS: 3.54%; T. brucei: -58.53%.
For CC(C)NC(=O)C[C@@H]1CCNC[C@@H]1Cc1cc(-c2ccccn2)on1 the result was Toxoplasma: -6.887%; TcHisRS: 8.696%; LiHisRS: 17.57%; T. brucei: -5.755%.
For COCC1CN(C(=O)c2cccc(C)n2)Cc2nccn2C1 (configuration not stated) the result was TcHisRS: 8.163%; LiHisRS: 17%.
For CC(C)=CCN1C[C@@H]2CN(C(=O)c3cnccc3C)C[C@]2(C(=O)O)C1 the result was TcHisRS: 0.4292%; LiHisRS: 0%.
For Cc1nc(C)n(CC2CCCN(Cc3nc(-c4ccco4)no3)C2)n1 (configuration not stated) the result was Toxoplasma: -5%; TcHisRS: 10%; LiHisRS: -0.8929%; T. brucei: -17.23%.
For COc1coc(CN2CCCC(CCc3ccccc3C)C2)cc1=O (configuration not stated) the result was Toxoplasma: 5.707%; TcHisRS: 5.419%; LiHisRS: 19.74%; T. brucei: -77.43%.
For CCn1ccnc1CN1CCCN(C(=O)Cc2ccc(C)nc2)CC1 the result was Toxoplasma: -0.7679%; TcHisRS: -2.642%; LiHisRS: 0%; T. brucei: -1.158%.
For Cc1cccc(C(C)(C)CNc2cn[nH]c(=O)c2Cl)c1 the result was Toxoplasma: 5.192%; TcHisRS: 3.922%; LiHisRS: 18.33%; T. brucei: 7.604%.
For CN1CCn2c(-c3cnn(C)c3)cnc2C12CCN(CC1CC1)CC2 the result was TcHisRS: 10.16%; LiHisRS: 19.66%.
For O=C1CCCN1C1CCN(S(=O)(=O)CCOc2ccc(F)cc2)CC1 the result was Toxoplasma: 0.9595%; TcHisRS: 6.494%; LiHisRS: -54.29%; T. brucei: -75.06%.
For O=c1[nH]c(N2CC(O)C2)nc2c1cnn2-c1ccccc1 the result was Toxoplasma: -5.772%; TcHisRS: 1.734%; LiHisRS: 6.667%; T. brucei: 8.228%.
For COCCNC(=O)Cn1cc(OCc2ccccc2F)c(=O)cc1CO the result was Toxoplasma: -22.65%; TcHisRS: -7.273%; LiHisRS: 23.38%; T. brucei: -29.95%.
For CN1CC(=O)N(c2ccsc2)CC12CCN(C(=O)N1CCCC1)C2 (configuration not stated) the result was TcHisRS: 10.92%; LiHisRS: 10.09%.
For CCN1CCCc2cc(-c3cncn3C(C)CN3CCOCC3)ccc21.Cl (configuration not stated) the result was Toxoplasma: -18.87%; T. brucei: -9.571%.
For O=S(=O)(NCc1ccccc1Cn1cncn1)C1CCCC1 the result was Toxoplasma: 0.9561%; TcHisRS: 2.632%; LiHisRS: 18.92%; T. brucei: 23.61%.
For O=C(O)C(F)(F)F.O=C(O)C(F)(F)F.[H][C@]12OCCN(C3CCOCC3)[C@@]1([H])CC[C@@H]2OCc1cccnc1 the result was Toxoplasma: 15.23%; T. brucei: -29.77%.
For O=C(O)C(F)(F)F.O=C(O)C(F)(F)F.[H][C@@]12C[C@H](C(=O)NCC3CC3)N(C)[C@]1([H])CN(Cc1cccc(C#N)c1)C2 the result was Toxoplasma: -14.91%; T. brucei: -35.21%.
For CC(C)NC(=O)C1CN(C(=O)NCc2ccccc2)CC12CCOCC2 (configuration not stated) the result was Toxoplasma: -9.471%; TcHisRS: 4.202%; LiHisRS: 8.257%; T. brucei: -11.93%.
For O=C(c1cc(C2CC2)[nH]n1)N1CCN(Cc2ccsc2)CC1 the result was Toxoplasma: 8.401%; TcHisRS: -1.916%; LiHisRS: 33.85%; T. brucei: -2.632%.
For Cc1n[nH]c(C)c1NC(=O)CN1CCOC(Cn2cccn2)C1 (configuration not stated) the result was Toxoplasma: 0.6497%; TcHisRS: 1.887%; LiHisRS: 16%; T. brucei: -3.975%.
For Cn1cc(CN2CCC3(CC2)CCN(C(=O)c2cscn2)C3)cn1.O=C(O)C(F)(F)F the result was Toxoplasma: -32.47%; T. brucei: -26.66%.
For CCc1ncncc1C(=O)NCCNS(=O)(=O)c1ccccc1 the result was Toxoplasma: -7.737%; TcHisRS: 7.027%; LiHisRS: 5.479%; T. brucei: -64.54%.
For O=C(c1cn2cc(Cl)cnc2n1)N1CCOCC(O)(CN2CCCC2)C1 (configuration not stated) the result was Toxoplasma: -5.865%; TcHisRS: -1.064%; LiHisRS: 16.42%; T. brucei: 1.325%.
For CCC1CN(CC(=O)N2CCC2)CCN1CCOC (configuration not stated) the result was Toxoplasma: 12%; TcHisRS: 1.504%; LiHisRS: 28.57%; T. brucei: 10.28%.
For CC(C)c1ncc2c(n1)CN(Cc1cccc(C(N)=O)c1)CC2 the result was Toxoplasma: -6.222%; TcHisRS: 8.772%; LiHisRS: 21.82%; T. brucei: -13.46%.
For CCCn1cc(-c2ccnc(NC3CCc4ccccc4C3)n2)c(C)n1 (configuration not stated) the result was Toxoplasma: 39.11%; TcHisRS: 25.93%; LiHisRS: 19.35%; T. brucei: 2.067%.
For Cc1cnn(CC2CN(CC(=O)N(C)Cc3cccs3)CCO2)c1 (configuration not stated) the result was Toxoplasma: -1.751%; TcHisRS: 0.3774%; LiHisRS: 14.86%; T. brucei: -29.2%.
For Cc1cc(C)n(CC2CN(Cc3nc(-c4ccoc4)no3)CCO2)n1 (configuration not stated) the result was Toxoplasma: 15.91%; TcHisRS: 0%; LiHisRS: 35.71%; T. brucei: 3.784%.

2 of the entries, repeated:

With O=C(c1cn2cc(Cl)cnc2n1)N1CCOCC(O)(CN2CCCC2)C1 (configuration not stated) the screen gave Toxoplasma: -5.865%; TcHisRS: -1.064%; LiHisRS: 16.42%; T. brucei: 1.325%.
With CC(C)NC(=O)C1CN(C(=O)NCc2ccccc2)CC12CCOCC2 (configuration not stated) the screen gave Toxoplasma: -9.471%; TcHisRS: 4.202%; LiHisRS: 8.257%; T. brucei: -11.93%.

Data taken from ChEMBL document CHEMBL3988442, “University of Dundee, Small-Polar-MMV Screening Library” (2021).